Reference: article PMC10883267 (2023)
These are yes or no findings as the source states them, for the method shown. Binding seen in cells or lysates may run through a third protein. Here binding means that the protein was enriched with, or labelled near, the bait; the list need not be complete. For part of these data: A no says only that the protein was not detected with the bait. Sequences can lack the tags named with a protein.

Protein sequences, listed by entry. Tags and fused reporters are not part of them. Lines headed by an entry give the natural chain unless they say otherwise; changes in a name come on top.
UniProt Q803B9: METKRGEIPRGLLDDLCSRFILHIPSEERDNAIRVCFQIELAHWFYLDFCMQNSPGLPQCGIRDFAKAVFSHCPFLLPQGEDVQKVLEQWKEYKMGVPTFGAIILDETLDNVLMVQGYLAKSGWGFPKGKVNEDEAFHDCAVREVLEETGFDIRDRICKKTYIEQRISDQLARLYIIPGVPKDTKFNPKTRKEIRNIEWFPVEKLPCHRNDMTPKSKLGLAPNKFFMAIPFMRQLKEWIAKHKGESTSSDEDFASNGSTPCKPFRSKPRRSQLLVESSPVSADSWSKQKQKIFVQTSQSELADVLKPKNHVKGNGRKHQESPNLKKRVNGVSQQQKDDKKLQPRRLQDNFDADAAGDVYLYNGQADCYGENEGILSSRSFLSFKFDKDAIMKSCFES
UniProt Q6PHD4: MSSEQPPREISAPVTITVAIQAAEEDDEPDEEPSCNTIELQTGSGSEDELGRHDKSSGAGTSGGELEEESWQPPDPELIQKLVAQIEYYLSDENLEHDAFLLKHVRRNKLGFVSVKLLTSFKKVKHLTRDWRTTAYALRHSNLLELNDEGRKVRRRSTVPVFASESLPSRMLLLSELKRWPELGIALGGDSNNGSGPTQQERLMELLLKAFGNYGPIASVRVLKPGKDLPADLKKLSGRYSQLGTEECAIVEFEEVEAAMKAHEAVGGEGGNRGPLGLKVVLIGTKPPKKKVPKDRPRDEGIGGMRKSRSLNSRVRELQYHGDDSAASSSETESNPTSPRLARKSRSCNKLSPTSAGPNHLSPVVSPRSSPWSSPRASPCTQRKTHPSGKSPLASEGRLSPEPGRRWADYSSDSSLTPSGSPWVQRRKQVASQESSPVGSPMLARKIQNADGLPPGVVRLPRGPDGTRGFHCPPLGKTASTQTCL
UniProt A0ACM8QBM4: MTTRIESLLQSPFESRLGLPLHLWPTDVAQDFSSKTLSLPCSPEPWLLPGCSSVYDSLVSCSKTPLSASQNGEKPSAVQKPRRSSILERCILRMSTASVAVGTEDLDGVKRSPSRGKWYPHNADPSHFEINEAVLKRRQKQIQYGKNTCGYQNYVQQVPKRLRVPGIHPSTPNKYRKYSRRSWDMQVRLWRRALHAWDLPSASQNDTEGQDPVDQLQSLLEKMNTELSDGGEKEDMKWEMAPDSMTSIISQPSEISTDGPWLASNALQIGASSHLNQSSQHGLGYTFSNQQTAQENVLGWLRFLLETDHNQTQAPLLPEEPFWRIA

T1: 3xflag-sfGFP-eIF4E1b (zebrafish, full length) (zebrafish) (UniProt Q9PW28)
T1 sequence: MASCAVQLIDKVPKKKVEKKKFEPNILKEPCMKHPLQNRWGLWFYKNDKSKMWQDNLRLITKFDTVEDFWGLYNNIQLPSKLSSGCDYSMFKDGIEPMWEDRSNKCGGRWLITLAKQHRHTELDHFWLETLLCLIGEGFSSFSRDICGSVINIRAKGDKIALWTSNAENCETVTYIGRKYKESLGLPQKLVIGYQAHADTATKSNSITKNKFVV


Key:
[1] = biological target: T1, 3xflag-sfGFP-eIF4E1b (zebrafish, full length) (zebrafish); assay: affinity purification with mass spectrometry; anti-GFP agarose beads, lysates of transgenic zebrafish oocytes (early, late) and embryos (8-cell, 3 hpf) expressing GFP-tagged eIF4E1b or eIF4E1c, wild-type lysates as control; 100 mM Tris-HCl pH 7.5, 150 mM NaCl, 0.05% Triton X-100; 4 °C overnight
[2] = biological target: T1, 3xflag-sfGFP-eIF4E1b (zebrafish, full length) (zebrafish); assay: affinity purification with mass spectrometry; as a2, 8-cell embryos expressing GFP-tagged eIF4E1b, lysate treated with RNase I (1 unit per 500 μL lysate, 30 min, 37 °C)
[3] = biological target: T1, 3xflag-sfGFP-eIF4E1b (zebrafish, full length) (zebrafish); assay: affinity purification with mass spectrometry; anti-GFP agarose beads, lysates of transgenic zebrafish oocytes (early, late) and embryos (8-cell, 3 hpf) expressing GFP-tagged eIF4E1b or eIF4E1c, wild-type lysates as control; 100 mM Tris-HCl pH 7.5, 150 mM NaCl, 0.05% Triton X-100; 4 °C overnight; remark: listed apart in the source

Molecule	binding [1]	binding [2]	binding [3]
zebrafish Dcp2 (from UniProt Q803B9 1-397) (enzyme)	no binding	–	–
zebrafish Larp6a (from UniProt Q6PHD4)	binds	–	–
zebrafish Edc4 (protein, UniProt Q1LUT1 1-1384) MASSSSMDIEGATQHLRDILKLDRPGNSAEASLVESQRKPSFNGELNGVLGSDLMGAAMVEPTVHNSDKLNGQDTQTICLSGDDGSICVPIRANIVEIVSSRDSSIDSKARGSNKVKIQPVAKYDWEHKYYYGNLIAVSNTYLAYAIRGANNHSMIRVLHLSSTERSLLKGFTGAVTDLAFAHLDSTLLGCVDEAGNMFIWQLTSHSSKIQDEVIVHIRRPEDTPLNSNRRLIWCPFIPEDNDESPEDACQTLALLHEDRAEVWDLDILRSNNSSWPVDATELKEGFITIRGHAARISEGALSPDGTVLATASHDGYVKFWQIYIEGQDQPRCLHEWQPHNGQPLSCLLFCDNHKKQDPDVPFWRFLITGADQNQELKMWCTVSWTCLQTIRFSPDPFNCGVLPSLKASLDLSAEFLILSDVQRKVLYVMELLQDQEKGRASFTAVSEFLLTHPVLSFGVQDVSRARLRHTEVLPPEEESESMTAEGNQGTSESRSGIQIKLYCVHTKSLQDVQIWFQPNQGDSSSLFMPQSGSQDGFSFSDPLADLNVEAMSSDKESGDSGSQNDLSKILPLPSPADFMSPAPSALPKLMTPDAFMTPSASMPASPGSSASSLTIVTAMSSSDSGARGGDDLTQSPKMSVECVNSSFANAGSPRSNSILISGLGENIQVSPPNPPLSLDLQAIDPMVVPQASPTRARSPDVISSASTAMSQDIPEIASETLQRGLSGANADSGPILHSDSMASAASILHLLSPRARSSAEHSLLPLELGAASVDGEQRLSNTPSLLETALSQENAGAAGGSCSDSSVNHAWPAAPDITRETRNSLRDNGLGDCSREEIKDRHISSPYHRRTYHLTQNDSQDASAEQSDHDDEVASLASSSGNCGPRSSHRLPVKDWKTSPRSSPKLKRKSKKDEGESSQSRQIESQMSTEVQDELLQMLRSQQREIAELRQNQLDLLQRVTSHMDAVQSSMMAHIEHAMLAQQEQEQRRMERILVEGQSRNQQLQDQLVQQLVQTLNNSLCNRLEKVLREEMKKTVPQTISKSLEPVTGQMNSTIAAKLTAVEGALKENVTKVVKSKNTTDAIGRAAAEAMQGPIQAAYKETFQSIVLPVFERGCQSMFQQINDSFKQGTNEYIQQLETHIKNRKQRDQDTRDPVIGQLQQMIDSLQSSQDQLASTVTASVSSDVQHQLHMIVGNLQDSILTQVQRIVKGEVSLAMKEQQAAVTSSIMQAMRSAAGTPVPSAHLDYQAQQASILQLLQQGQLNEAFQQALSAADLNLVLYVCETIDSQQVFGQQPCPLHQAVLLSLIQQLSTNLSTRTELKISYLEDAVMNLDHGDPVTRDHMSAVLTQVRQKLFLFLQQDAHSPMSKRARRLMMMLQGLVNH	–	–	no binding
zebrafish Larp6b (protein, UniProt A0A8M1NE68 1-471) MSSPGFTDIFHCEDTQQSKGLFSYTDDGLNDSLDGSSTDLTDVFEEDFCEGELWIPPNDDVTQQIATQLENYLSDENLSDDAFLLKHVQRNKMGYVSLKLLTSFKKIRDLTRDWRTTLAAARTSPQLEVNEMGTKVRRRTPVPDWLLCIPTSKLLLAWNFLDGAGPVKEKFESPGVEQLGIMEAAMRVFSPYGTISSLRILRPGKEIPAELKRYTKKHLELGRKVCAVVEYEYLEGARKAFEALKVEEQQGGRGICVVLLGSRGTRKPGCSQGLVDEEQEDCIDIDVLKRPDRKARQFVYSLEDSAVCSSSESDFAPASPRPNRRVSRPQALYGSPLAIPRVSTFRSDPYRNPLGSPVGSPLQPRKLFPCSHVTSPLATHPFSSTPSGAGTSFKYKASGELSPDDLGFTSSPWVQRRKNAAQVIQPEMASSMSPSQLIKSLSVLVVRQPVGPDGTKGFHNCIGRGKVLLPQ	–	–	binds

Other lines, results leading:

binding [1]	binding [2]	binding [3]	Molecule
no binding	–	–	zebrafish Dcp1
binds	–	–	zebrafish Slbp2 (from UniProt A0ACM8QBM4 1-326)
binds	binds	–	zebrafish eIF4ENIF1
–	–	binds	zebrafish Zar1 (protein, UniProt Q7T3T8 1-329) MATYGNETVDNYLYSSYNPYYYKYPKFKGWRQKAYFTNYGEGETYFDNHHRAQLKSILSQINPNLTPRLRKANTKDVGVQVNPKTDASIQCSLGPRTLLARKRDALRRRRQEVQTPGSPVSSGGVRFPRTQAVYSPVESRRLVSLFREEGEEEEDTDLEVTETVDSAEKLESAEKNVRKQGKKSAKQPLSPEKNINKQTETNEENTNEPVKTEQDDLKSKARVRFQSLEQKYGFYHCKDCNLRWESAYVWCVQGTNKVYFKQFCRTCQKSFNPYRVEDIACQTCKKARCTCSVKSRHVDPKRPHRQDLCGRCKGKRLSCDSTFSFKYII
